Laboratory results as given in patent publication US20260108546A1 (ELI LILLY AND COMPANY, priority 2024, published 2026).
Some of these results come from one statement about several compounds together.

Biological target: T1, hGIP-R (Homo sapiens, UniProt P48546)
T1 construct: expressed in transfected cells; host or cells: HEK-293 clonal cell lines
T1 sequence (P48546 22-466): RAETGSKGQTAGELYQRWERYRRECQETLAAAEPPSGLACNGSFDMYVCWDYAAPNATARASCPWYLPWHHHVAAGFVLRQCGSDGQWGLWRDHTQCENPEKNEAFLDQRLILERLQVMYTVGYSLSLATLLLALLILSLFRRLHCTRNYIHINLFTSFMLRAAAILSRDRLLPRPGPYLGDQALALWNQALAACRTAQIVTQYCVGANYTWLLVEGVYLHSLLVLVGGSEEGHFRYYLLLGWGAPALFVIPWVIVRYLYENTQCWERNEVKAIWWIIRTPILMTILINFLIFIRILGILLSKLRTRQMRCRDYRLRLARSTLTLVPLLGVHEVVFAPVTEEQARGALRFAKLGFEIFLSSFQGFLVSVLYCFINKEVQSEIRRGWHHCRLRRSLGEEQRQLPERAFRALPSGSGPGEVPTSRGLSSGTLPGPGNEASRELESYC
Test: Functional hGIP-R Assay (cAMP formation, HTRF)
Type: cell-based
Conditions: cAMP formation in HEK-293 clonal cell lines expressing hGIP-R; 30 min at 37° C.; 0.1% bovine casein; relative EC50 vs. maximal response of human GIP (1-42) OH
Procedure, shortened: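 Relative EC50 and Emax came from four-parameter logistic fits of cAMP as a percent of the human GIP (1-42) OH maximal response. The cAMP was measured by competitive HTRF after 30 min, 37 °C compound exposure of hGIP-R HEK-293 clones in IBMX (250 μM)-containing medium.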

SMILES	EC50
Cc1ncc(-c2cc(C(F)(F)F)nn2CC(C)(C)NC(=O)[C@@H](Cc2cnn(C)c2)NC(=O)[C@H]2C[C@@H]2c2ccc(-c3cnc4nn(C)cc4c3)cc2)[nH]1 [Example 15, (1S,2S)-N-((R)-1-((2-Methyl-1-(5-(2-methyl-1H-imidazol-5-yl)-3-(trifluoromethyl)-1H-pyrazol-1-yl)propan-2-yl)amino)-3-(1-methyl-1H-pyrazol-4-yl)-1-oxopropan-2-yl)-2-(4-(2-methyl-2H-pyrazolo[3,4-b]pyridin-5-yl)phenyl) cyclopropane-1-carboxamide]	≤ 300 nM
COCc1cn2cc(-c3ccc([C@H]4C[C@@H]4C(=O)N[C@H](Cc4cnc5ncccn45)C(=O)NC(C)(C)Cn4cc(C(F)(F)F)cn4)cc3)cnc2n1 [Example 75, (1S,2S)-N-((R)-3-(Imidazo[1,2-a]pyrimidin-3-yl)-1-((2-methyl-1-(4-(trifluoromethyl)-1H-pyrazol-1-yl)propan-2-yl)amino)-1-oxopropan-2-yl)-2-(4-(2-(methoxymethyl)imidazo[1,2-a]pyrimidin-6-yl)phenyl)cyclopropane-1-carboxamide]	≤ 300 nM
COCc1cn2cc(-c3ccc([C@H]4C[C@@]45CCN([C@H](Cc4cnn(C(F)F)c4)C(=O)NC(C)(C)Cn4nc(C(F)(F)F)cc4-c4cncc(C)n4)C5=O)c(C)n3)cnc2n1 [Example 176, (R)-3-(1-(difluoromethyl)-1H-pyrazol-4-yl)-2-((1R,3R)-1-(6-(2-(methoxymethyl)imidazo[1,2-a]pyrimidin-6-yl)-2-methylpyridin-3-yl)-4-oxo-5-azaspiro[2.4]heptan-5-yl)-N-(2-methyl-1-(5-(6-methylpyrazin-2-yl)-3-(trifluoromethyl)-1H-pyrazol-1-yl)propan-2-yl)propanamide]	≤ 300 nM
CC(C)(Cn1cc(C(F)(F)F)cn1)NC(=O)[C@@H](Cc1cnc2ncccn12)NC(=O)[C@H]1C[C@@H]1c1ccc(-c2cnc3nc(C(C)(F)F)cn3c2)cc1 [Example 80, (1S,2S)-2-(4-(2-(1,1-Difluoroethyl)imidazo[1,2-a]pyrimidin-6-yl)phenyl)-N-((R)-3-(imidazo[1,2-a]pyrimidin-3-yl)-1-((2-methyl-1-(4-(trifluoromethyl)-1H-pyrazol-1-yl)propan-2-yl)amino)-1-oxopropan-2-yl)cyclopropane-1-carboxamide]	≤ 300 nM
Cn1cc2cc(-c3ccc(C4CC45CCN([C@H](Cc4cnn(C(F)F)c4)C(=O)NC(C)(C)Cn4nc(C(F)(F)F)cc4-c4ccc(=O)n(C)c4)C5=O)c(C(F)(F)F)n3)cnc2n1 (single isomer, unassigned; isomer 1) [Example 113]	≤ 300 nM
Cn1cc2cc(-c3ccc([C@H]4C[C@@]45CCN([C@H](Cc4cnn(C(F)F)c4)C(=O)NC(C)(C)Cn4nc(C(F)(F)F)cc4-c4cc(C(F)(F)F)c(=O)n(C)c4)C5=O)cc3)cnc2n1 [Example 130, (R)-3-(1-(Difluoromethyl)-1H-pyrazol-4-yl)-N-(2-methyl-1-(5-(1-methyl-6-oxo-5-(trifluoromethyl)-1,6-dihydropyridin-3-yl)-3-(trifluoromethyl)-1H-pyrazol-1-yl)propan-2-yl)-2-((1R,3R)-1-(4-(2-methyl-2H-pyrazolo[3,4-b]pyridin-5-yl)phenyl)-4-oxo-5-azaspiro[2.4]heptan-5-yl)propanamide]	≤ 300 nM
Cn1cc2cc(-c3ccc([C@H]4C[C@@]45CCN([C@H](Cc4cnn(C(F)F)c4)C(=O)NC(C)(C)Cn4nc(C(F)(F)F)cc4-c4ccc(C(N)=O)[nH]c4=O)C5=O)cc3)cnc2n1 [Example 132, 5-(1-(2-((R)-3-(1-(Difluoromethyl)-1H-pyrazol-4-yl)-2-((1R,3R)-1-(4-(2-methyl-2H-pyrazolo[3,4-b]pyridin-5-yl)phenyl)-4-oxo-5-azaspiro[2.4]heptan-5-yl)propanamido)-2-methylpropyl)-3-(trifluoromethyl)-1H-pyrazol-5-yl)-6-oxo-1,6-dihydropyridine-2-carboxamide]	≤ 300 nM
Cc1ncc(-c2cc(C(F)(F)F)nn2CC(C)(C)NC(=O)[C@@H](Cc2cnn(C(F)F)c2)N2CCC3(CC3c3ccc(-c4cnc5nn(C)cc5c4)nc3C(F)(F)F)C2=O)cn1 (single isomer, unassigned; isomer 1) [Example 112]	≤ 300 nM
CC(C)(Cn1cc(C(F)(F)F)cn1)NC(=O)[C@@H](Cc1cnc2ncccn12)NC(=O)[C@H]1C[C@@H]1c1ccc(-c2cnc3nc(C4CC(F)(F)C4)cn3c2)cc1 [Example 74, (1S,2S)-2-(4-(2-(3,3-Difluorocyclobutyl)imidazo[1,2-a]pyrimidin-6-yl)phenyl)-N-((R)-3-(imidazo[1,2-a]pyrimidin-3-yl)-1-((2-methyl-1-(4-(trifluoromethyl)-1H-pyrazol-1-yl)propan-2-yl)amino)-1-oxopropan-2-yl)cyclopropane-1-carboxamide]	≤ 300 nM
Cn1cc(C[C@@H](NC(=O)[C@H]2C[C@@H]2c2ccc(-c3cnc4nn(C)cc4c3)cc2)C(=O)NC(C)(C)Cn2nc(C(F)(F)F)cc2-c2cc3c(=O)[nH]cnn3c2)cn1 [Example 57, (1S,2S)-N-((R)-1-((2-Methyl-1-(5-(4-oxo-3,4-dihydropyrrolo[2,1-f][1,2,4]triazin-6-yl)-3-(trifluoromethyl)-1H-pyrazol-1-yl)propan-2-yl)amino)-3-(1-methyl-1H-pyrazol-4-yl)-1-oxopropan-2-yl)-2-(4-(2-methyl-2H-pyrazolo[3,4-b]pyridin-5-yl)phenyl) cyclopropane-1-carboxamide]	≤ 300 nM
[2H]C([2H])([2H])N(C(=O)[C@H]1C[C@@H]1c1ccc(-c2cnc3nn(C)cc3c2)nc1C(F)F)[C@H](Cc1cnn(C(F)F)c1)C(=O)NC(C)(C)Cn1nc(C(F)(F)F)cc1-c1cc(F)c(=O)n(C)c1 [Example 137, (1S,2S)-N-((R)-3-(1-(Difluoromethyl)-1H-pyrazol-4-yl)-1-((1-(5-(5-fluoro-1-methyl-6-oxo-1,6-dihydropyridin-3-yl)-3-(trifluoromethyl)-1H-pyrazol-1-yl)-2-methylpropan-2-yl)amino)-1-oxopropan-2-yl)-2-(2-(difluoromethyl)-6-(2-methyl-2H-pyrazolo[3,4-b]pyridin-5-yl)pyridin-3-yl)-N-(methyl-d3)cyclopropane-1-carboxamide]	≤ 300 nM
Cc1nc(-c2cnc3nc(C4CC4)cn3c2)ccc1[C@H]1C[C@@]12CCN([C@H](Cc1cnn(C(F)F)c1)C(=O)NC(C)(C)Cn1nc(C(F)(F)F)cc1-c1ccc(C(C)(C)O)nc1)C2=O [Example 159, (R)-2-((1R,3R)-1-(6-(2-Cyclopropylimidazo[1,2-a]pyrimidin-6-yl)-2-methylpyridin-3-yl)-4-oxo-5-azaspiro[2.4]heptan-5-yl)-3-(1-(difluoromethyl)-1H-pyrazol-4-yl)-N-(1-(5-(6-(2-hydroxypropan-2-yl)pyridin-3-yl)-3-(trifluoromethyl)-1H-pyrazol-1-yl)-2-methylpropan-2-yl)propanamide]	≤ 300 nM
Cn1cc2cc(-c3ccc([C@H]4C[C@@H]4C(=O)N[C@H](Cc4cnn(C(F)F)c4)C(=O)NC(C)(C)Cn4nc(C(F)(F)F)cc4Br)cc3)cnc2n1 [Example 12, (1S,2S)-N-((R)-1-((1-(5-bromo-3-(trifluoromethyl)-1H-pyrazol-1-yl)-2-methylpropan-2-yl)amino)-3-(1-(difluoromethyl)-1H-pyrazol-4-yl)-1-oxopropan-2-yl)-2-(4-(2-methyl-2H-pyrazolo[3,4-b]pyridin-5-yl)phenyl) cyclopropane-1-carboxamide]	≤ 300 nM
